The record followed here is WO2008118324A2.

These are yes or no findings as the source states them, for the method shown. Some binding calls cover weakened binding; strength is not graded here.

This assay concerns the target UPK-G1 fusion protein (121 amino acid extracellular region of human UPK-Ib fused to the human IgG1 Fc region) (human). Put plainly: ELISA on UPK1-Fc (Figure 3B).

As for “chimeric 5H9 (human IgG1 wild type Fc) (from UniProt P01857 1-330; P01834 1-107) (antibody)”, the binding entry is given as “binds”.
“chimeric 1G9 (human IgG1 wild type Fc) (from UniProt P01857 1-330; P01834 1-107) (antibody)”: the binding entry was “binds”.
